Some of the results follow. For some of these results: At the low end of the ranking, values are background and their order means little.

The first test concerns the target T1, PUM1 PUF domain R1-QFR R2-VFQ R7-NPG S863Q + R864F + Q867R + N899V + Y900F + S1079N + N1080P + E1083G (Homo sapiens) (UniProt Q14671).
T1 sequence: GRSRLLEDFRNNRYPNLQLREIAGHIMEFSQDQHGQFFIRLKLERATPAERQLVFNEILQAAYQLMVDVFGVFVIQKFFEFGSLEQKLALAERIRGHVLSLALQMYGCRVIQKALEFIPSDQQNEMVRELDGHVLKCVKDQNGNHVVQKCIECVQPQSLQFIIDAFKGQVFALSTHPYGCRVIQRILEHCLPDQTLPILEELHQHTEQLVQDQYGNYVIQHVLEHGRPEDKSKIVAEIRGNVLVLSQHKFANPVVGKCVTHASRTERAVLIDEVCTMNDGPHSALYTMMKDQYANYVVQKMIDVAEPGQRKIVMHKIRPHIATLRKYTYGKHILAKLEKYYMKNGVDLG
The settings on record: yeast three-hybrid, YBZ-1, SC-Leu-His + 0.5 mM 3-AT, 4 days.
With “GGCUAGAACUAGUGGAUCCCCCGGCGCCCGGCGGCUCGAGCCCGGGUAAGCAGAUAUAGUCUGCAUGCCGCCGGGCGCCAUGCCUGCAGGUCGACUCUAGAAAACAUG”, the binding signal (log2 enrichment (interaction score)) is -0.83. Still for that read-out and setting: the same measure for “GGCUAGAACUAGUGGAUCCCCCGGCGCCCGGCGGCUCGAGCCCGGGUAAGCAUAAUUAGUCUGCAUGCCGCCGGGCGCCAUGCCUGCAGGUCGACUCUAGAAAACAUG”: -0.2; for “GGCUAGAACUAGUGGAUCCCCCGGCGCCCGGCGGCUCGAGCCCGGGUAAGUUGCGAAAGUCUGCAUGCCGCCGGGCGCCAUGCCUGCAGGUCGACUCUAGAAAACAUG”: -0.55; for “GGCUAGAACUAGUGGAUCCCCCGGCGCCCGGCGGCUCGAGCCCGGGUAAGUGAACGGCGUCUGCAUGCCGCCGGGCGCCAUGCCUGCAGGUCGACUCUAGAAAACAUG”: 4.1. Still for that read-out and setting: the same measure for “GGCUAGAACUAGUGGAUCCCCCGGCGCCCGGCGGCUCGAGCCCGGGUAAGUUAACGGUGUCUGCAUGCCGCCGGGCGCCAUGCCUGCAGGUCGACUCUAGAAAACAUG”: -0.84; for “GGCUAGAACUAGUGGAUCCCCCGGCGCCCGGCGGCUCGAGCCCGGGUAAGUUUAGAACGUCUGCAUGCCGCCGGGCGCCAUGCCUGCAGGUCGACUCUAGAAAACAUG”: -0.99; for “GGCUAGAACUAGUGGAUCCCCCGGCGCCCGGCGGCUCGAGCCCGGGUAAGUUAGAUCCGUCUGCAUGCCGCCGGGCGCCAUGCCUGCAGGUCGACUCUAGAAAACAUG”: -0.89.

For another test, the target named is T2, PUM1 PUF domain R1-QFR R2-VFQ R7-NPG S863Q + R864F + Q867R + N899V + Y900F + S1079N + N1080P + E1083G (UniProt Q14671).
T2 sequence: T1 sequence
The note with it: yeast three-hybrid, YBZ-1, SC-Leu-His + 0.5 mM 3-AT, 4 days.
As for “GGCUAGAACUAGUGGAUCCCCCGGCGCCCGGCGGCUCGAGCCCGGGUAAGUUUAAUAUGUCUGCAUGCCGCCGGGCGCCAUGCCUGCAGGUCGACUCUAGAAAACAUG”, the binding signal (log2 enrichment (interaction score)) is -6.38. Still for that read-out and setting: under “GGCUAGAACUAGUGGAUCCCCCGGCGCCCGGCGGCUCGAGCCCGGGUAAGCUGUCCUCGUCUGCAUGCCGCCGGGCGCCAUGCCUGCAGGUCGACUCUAGAAAACAUG” stands -3.4; under “GGCUAGAACUAGUGGAUCCCCCGGCGCCCGGCGGCUCGAGCCCGGGUAAGUACACGGCGUCUGCAUGCCGCCGGGCGCCAUGCCUGCAGGUCGACUCUAGAAAACAUG”, -5.38. Same read-out and setting: the same measure for “GGCUAGAACUAGUGGAUCCCCCGGCGCCCGGCGGCUCGAGCCCGGGUAAGUUUAAGUGGUCUGCAUGCCGCCGGGCGCCAUGCCUGCAGGUCGACUCUAGAAAACAUG”: -6; for “GGCUAGAACUAGUGGAUCCCCCGGCGCCCGGCGGCUCGAGCCCGGGUAAGGUGGCGACGUCUGCAUGCCGCCGGGCGCCAUGCCUGCAGGUCGACUCUAGAAAACAUG”: less than -5.13. Take “GGCUAGAACUAGUGGAUCCCCCGGCGCCCGGCGGCUCGAGCCCGGGUAAGCUUAAGGAGUCUGCAUGCCGCCGGGCGCCAUGCCUGCAGGUCGACUCUAGAAAACAUG”: the binding signal (log2 enrichment (interaction score)) was -4.72.

On to “GGCUAGAACUAGUGGAUCCCCCGGCGCCCGGCGGCUCGAGCCCGGGUAAGGAUCUCAAGUCUGCAUGCCGCCGGGCGCCAUGCCUGCAGGUCGACUCUAGAAAACAUG”, for which the binding signal (log2 enrichment (interaction score)) was less than -5.65.

For the sequence “GGCUAGAACUAGUGGAUCCCCCGGCGCCCGGCGGCUCGAGCCCGGGUAAGGUUACGUCGUCUGCAUGCCGCCGGGCGCCAUGCCUGCAGGUCGACUCUAGAAAACAUG”, the binding signal (log2 enrichment (interaction score)) is -6.2. Same read-out and setting: the same measure for “GGCUAGAACUAGUGGAUCCCCCGGCGCCCGGCGGCUCGAGCCCGGGUAAGUCUAAAACGUCUGCAUGCCGCCGGGCGCCAUGCCUGCAGGUCGACUCUAGAAAACAUG”: -2.45; for “GGCUAGAACUAGUGGAUCCCCCGGCGCCCGGCGGCUCGAGCCCGGGUAAGUGUGGGAGGUCUGCAUGCCGCCGGGCGCCAUGCCUGCAGGUCGACUCUAGAAAACAUG”: -6.41; for “GGCUAGAACUAGUGGAUCCCCCGGCGCCCGGCGGCUCGAGCCCGGGUAAGGGUAAUAAGUCUGCAUGCCGCCGGGCGCCAUGCCUGCAGGUCGACUCUAGAAAACAUG”: less than -6.36. Turning to “GGCUAGAACUAGUGGAUCCCCCGGCGCCCGGCGGCUCGAGCCCGGGUAAGUUUUAUAAGUCUGCAUGCCGCCGGGCGCCAUGCCUGCAGGUCGACUCUAGAAAACAUG”, the binding signal (log2 enrichment (interaction score)) is -5.95. For the sequence “GGCUAGAACUAGUGGAUCCCCCGGCGCCCGGCGGCUCGAGCCCGGGUAAGAAGAAGAAGUCUGCAUGCCGCCGGGCGCCAUGCCUGCAGGUCGACUCUAGAAAACAUG”, the binding signal (log2 enrichment (interaction score)) is -5.13.

As to “GGCUAGAACUAGUGGAUCCCCCGGCGCCCGGCGGCUCGAGCCCGGGUAAGACUACCUAGUCUGCAUGCCGCCGGGCGCCAUGCCUGCAGGUCGACUCUAGAAAACAUG”, the binding signal (log2 enrichment (interaction score)) is -5.06. Same read-out and setting: the same measure for “GGCUAGAACUAGUGGAUCCCCCGGCGCCCGGCGGCUCGAGCCCGGGUAAGGCUUACUUGUCUGCAUGCCGCCGGGCGCCAUGCCUGCAGGUCGACUCUAGAAAACAUG”: less than -5.7.

The record behind these values is paper PMC8384837.
